Results deposited as PubChem BioAssay AID720710 (VTT Finland, 2013)

- Test: 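siRNAs sensitising CCNE1-overexpressing U-2 OS cells to replication stress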 (primary screen)
- System: human U-2 OS bone cancer cells, parental and a cyclin E (CCNE1) overexpressing line
- Reagent: single siRNA against human genes, 1 µM siRNA in the printed spot mix
- Duration: 67 h
- Challenge: half the arrays: hydroxyurea 2 mM for 16 h, then 3 h recovery; other arrays untreated
- Detection: 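EdU click signal imaged per DAPI-stained nucleus at 67 h; each spot divided by its subgrid median, then z-scored relative to non-targeting control spots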
- Direction: EdU z-score, cyclin E line, hydroxyurea and EdU z-score, parental, hydroxyurea and EdU z-score, cyclin E line, untreated and EdU z-score, parental, untreated: higher = more DNA synthesis than non-targeting controls
In all, the deposit lists about 1,380 reagents; this is an unselected part. 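One array per condition without replicates; hydroxyurea arrays received 2 mM for 16 h plus 3 h recovery.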 Reagents against one gene are numbered here.

gene | reagent | EdU z-score, cyclin E line, hydroxyurea | EdU z-score, parental, hydroxyurea | EdU z-score, cyclin E line, untreated | EdU z-score, parental, untreated
RBX1 | 1 | -1.11 | 0.422 | -3.21 | -0.499
RBX1 | 2 | 0.933 | 1.61 | -2.4 | 0.735
CIB1 | 1 | 0.104 | -1.16 | -1.01 | 0.542
CIB1 | 2 | 0.302 | 0.106 | -0.0755 | 2.01
ORC2 | 1 | -0.296 | -0.0044 | -2.84 | -0.671
ORC2 | 2 | 0.989 | 0.912 | -0.573 | 1.21
H3-4 | 1 | -0.895 | -3.37 | -1.37 | 0.861
H3-4 | 2 | 0.745 | -0.236 | 1.65 | 1.95
DMC1 | 1 | -1.07 | 1.09 | -2.16 | -2.25
DMC1 | 2 | 0.0326 | 3.56 | -0.462 | -1.92
P3H4 | 1 | -2.08 | 0.37 | -0.952 | 0.491
P3H4 | 2 | 2.13 | 2.27 | -0.469 | 0.613
RBBP7 | 1 | -0.825 | -1.73 | -1.05 | -0.291
RBBP7 | 2 | 0.583 | 2.28 | -0.722 | 0.642
DNTT | 1 | 0.0755 | -2.95 | -0.87 | -2.01
DNTT | 2 | 0.858 | 0.61 | 0.494 | -1.29
CIDEB | 1 | -1.14 | -0.463 | 0.00509 | -1.17
CIDEB | 2 | 2.63 | 1.23 | 0.314 | -0.948
H4C13 | 1 | -1.05 | -8.28 | -0.692 | -2.55
H4C13 | 2 | 1.29 | 0.65 | -0.175 | -1.57
KMT5A | 1 | -0.428 | 1.23 | -1.76 | -2.46
KMT5A | 2 | 0.24 | 2.61 | 0.224 | 0.818
UCP1 | 1 | -0.875 | 0.935 | -3.56 | -1.09
UCP1 | 2 | 0.00657 | 0.979 | -0.53 | 0.403
MBD4 | 1 | -2.48 | -0.83 | -2.6 | -1.79
MBD4 | 2 | -1.79 | -0.00442 | -2.54 | 0.336
NFIX | 1 | -1.64 | -4.57 | -2.34 | -0.729
NFIX | 2 | -0.339 | -0.853 | -1.31 | -0.235
ZNRF2 | 1 | -0.939 | -0.828 | -0.894 | 0.398
ZNRF2 | 2 | 0.53 | 1.3 | -0.714 | 0.545
MAP2K6 | 1 | -1.42 | -1.24 | -0.684 | -0.192
MAP2K6 | 2 | -0.771 | 0.315 | -0.436 | 0.176
GMNN | 1 | -1.13 | -0.812 | -2 | -0.806
GMNN | 2 | -1.04 | 1.42 | -0.534 | -0.677
SOX2 | 1 | -2.79 | -1.05 | -0.82 | -1.61
SOX2 | 2 | 1.66 | 1.32 | 0.249 | 0.16
KAT6B | 1 | -0.753 | 0.226 | -1.36 | -1.29
KAT6B | 2 | 0.0947 | 0.248 | -0.358 | 0.579
L3MBTL2 | 1 | -1.68 | 0.403 | -1.41 | -0.182
L3MBTL2 | 2 | 0.385 | 2.31 | 1.3 | 0.999
TSPYL2 | 1 | 0.36 | 1.8 | -1.1 | -0.751
TSPYL2 | 2 | 0.867 | 2.6 | -0.771 | 1.34
DDIT3 | 1 | -2.33 | -2.13 | -2.09 | -0.671
DDIT3 | 2 | -0.229 | -1.74 | -0.285 | -0.381
RBBP4 | 1 | -0.325 | 0.728 | -1.06 | -1.77
RBBP4 | 2 | 0.386 | 3.43 | 2.15 | 1.18
DNMT1 | 1 | -3.65 | 0.541 | -2.5 | -0.878
DNMT1 | 2 | 0.686 | 1.96 | -0.655 | 0.214
SMC6 | 1 | 0.211 | -1.86 | -3.52 | -1.37
SMC6 | 2 | 0.327 | 1.98 | -1.54 | 0.623
H1-5 | 1 | -2 | -0.657 | -2.29 | 0.117
H1-5 | 2 | 0.642 | -0.631 | -0.889 | 0.337
NOL8 | 1 | -1.68 | -4.09 | -2.01 | -2.19
NOL8 | 2 | -0.383 | -0.561 | -1.96 | -1.34
SATB1 | 1 | -1.65 | -2.5 | -2.66 | -2.35
SATB1 | 2 | -1.27 | 1.58 | -0.553 | 1.65
UHRF1 | 1 | -1.16 | -1.64 | -1.23 | -0.398
UHRF1 | 2 | -0.618 | -1.21 | -0.604 | -0.388
DDX12P | 1 | -1.85 | -2.61 | -5.51 | -0.206
DDX12P | 2 | -0.13 | -1.99 | 0.838 | 1.15
DKC1 | 1 | -0.769 | 0.658 | -1.62 | -0.0123
DKC1 | 2 | -0.296 | 0.934 | 0.075 | 1.4
PPP2R1A | 1 | -1.77 | -0.819 | -3.09 | -0.246
PPP2R1A | 2 | -1.31 | 0.238 | 0.537 | 1.16
MSH5 | 1 | -0.393 | -1.82 | -1.6 | -0.654
MSH5 | 2 | 0.287 | -1.39 | -0.79 | -0.0879
NTHL1 | 1 | 2.41 | -0.695 | 0.668 | -1.95
NTHL1 | 2 | 2.69 | 1.77 | 1.34 | 0.185
RPA1 | 1 | -1.31 | -1.17 | -2.45 | -1.38
RPA1 | 2 | -0.872 | 1.52 | -0.342 | -0.743
RNF14 | 1 | -2.48 | -1.98 | -1.76 | -1.05
RNF14 | 2 | -0.758 | 0.717 | -1.32 | -0.557
LOC652826 | 1 | -0.124 | -0.477 | -0.649 | 0.372
LOC652826 | 2 | 2.1 | 0.0593 | 0.127 | 0.571

Reformatted: results already given.
{"gene": "SATB1", "reagent": 2, "EdU z-score, cyclin E line, hydroxyurea": -1.27, "EdU z-score, parental, hydroxyurea": 1.58, "EdU z-score, cyclin E line, untreated": -0.553, "EdU z-score, parental, untreated": 1.65}
{"gene": "UHRF1", "reagent": 1, "EdU z-score, cyclin E line, hydroxyurea": -1.16, "EdU z-score, parental, hydroxyurea": -1.64, "EdU z-score, cyclin E line, untreated": -1.23, "EdU z-score, parental, untreated": -0.398}
{"gene": "UHRF1", "reagent": 2, "EdU z-score, cyclin E line, hydroxyurea": -0.618, "EdU z-score, parental, hydroxyurea": -1.21, "EdU z-score, cyclin E line, untreated": -0.604, "EdU z-score, parental, untreated": -0.388}
{"gene": "DDX12P", "reagent": 1, "EdU z-score, cyclin E line, hydroxyurea": -1.85, "EdU z-score, parental, hydroxyurea": -2.61, "EdU z-score, cyclin E line, untreated": -5.51, "EdU z-score, parental, untreated": -0.206}
{"gene": "DDX12P", "reagent": 2, "EdU z-score, cyclin E line, hydroxyurea": -0.13, "EdU z-score, parental, hydroxyurea": -1.99, "EdU z-score, cyclin E line, untreated": 0.838, "EdU z-score, parental, untreated": 1.15}
